# Percent effect of library compounds

Chains of the proteins cited; added tags and fusions are not shown.
UniProt P9WFT3, whole entry: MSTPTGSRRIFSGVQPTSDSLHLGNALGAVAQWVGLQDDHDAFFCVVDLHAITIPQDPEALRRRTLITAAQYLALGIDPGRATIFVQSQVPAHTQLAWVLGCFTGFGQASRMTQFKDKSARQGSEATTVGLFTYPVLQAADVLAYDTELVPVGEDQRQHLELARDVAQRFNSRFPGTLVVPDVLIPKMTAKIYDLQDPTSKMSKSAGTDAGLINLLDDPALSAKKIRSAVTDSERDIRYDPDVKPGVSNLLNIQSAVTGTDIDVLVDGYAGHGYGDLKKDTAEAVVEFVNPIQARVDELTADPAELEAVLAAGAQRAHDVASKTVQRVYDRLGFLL

Measurements from “University of Dundee, Small-Polar-MMV Screening Library” (2021), ChEMBL document CHEMBL3988442.

A: 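Cell assay of Leishmania donovani living inside macrophages; the read-out is not stated. Compounds at 30 µM. Direction is inferred from retests: higher values go with stronger inhibition. Of about 69,000 compounds tested this way, about 1,000 (1.5%) reached 50% or more in at least one test.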
B: 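Tryptophan-tRNA ligase, Mycobacterium tuberculosis (UniProt P9WFT3). Enzyme assay of tryptophanyl-tRNA synthetase; the read-out is not stated. Concentration: 10 µM. Direction is not recorded; retested compounds ran higher, which suggests that high means inhibition. Size under these conditions: about 65,000 compounds, about 64 of them at 50% or above in at least one test.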
C: 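Whole-parasite assay of Trypanosoma brucei over 72 hours; the read-out is not stated. Tested at 30 µM. The record gives no direction; compounds that gave an IC50 in retests scored well above the rest, so higher reads as stronger inhibition. Values scatter widely below zero; nearly all retest evidence comes from the higher of the two concentrations used. About 64,000 compounds were tested under these conditions; 1.5% (about 940) showed 50% or more at least once.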

Results are given as percent effect. The controls that fix the scale are not given in the record; negative values are as filed. The compounds are a random part of those screened. Two or more numbers in one place are separate tests of the same structure; such repeats can differ widely. A dash means the value is not listed here; it may have been measured.

| SMILES | A | B | C |
|---|---|---|---|
| `O=C1CO[C@@H]2CN(Cc3cccs3)C[C@H]2N1Cc1ccncc1` | - | 5.849 | - |
| `CC(C)(O)CNC(=O)NCc1nccn1CCc1ccccc1` | 27.47 | -0.07179 | -11.66 |
| `O=C(O)C(F)(F)F.[H][C@@]12C[C@@H](Oc3cncnc3)CN1CCN(C(=O)Cc1cccc(F)c1)C2` | 2.569 | - | 2.095 |
| `CN1CCN(c2ccc3ccc(C(=O)N4CCCCO4)cn23)CC1` | - | -3.483 | - |
| `CCCNC(=O)COc1ccc(C)cn1` | 7.778 | 3.701 | -9.984 |
| `Cc1cccc(CN2CCCC2c2cncc(Nc3nncs3)n2)c1` (centres unmarked) | 12.54 | -3.872 | - |
| `Cc1cnc(CNC(=O)CC2CCc3ccccc32)cn1` (centres unmarked) | 5.038 | -1.256 | -20.65 |
| `Cc1cnn(C2CCCN(C(=O)c3cc[nH]n3)C2)c1` (centres unmarked) | 9.905 | 1.961 | -52.79 |
| `CCOc1cc(CN(C)Cc2ccccc2)ccc1OC(F)F` | -11.94 | -2.13 | -3.133 |
| `Cc1ccc2c(c1)CN(C(=O)c1ccccc1F)C(CN(C)C)CO2` (centres unmarked) | - | 2.09 | - |
| `Fc1ccc(CCN2CCC(c3nnc(-c4cccnc4)o3)CC2)cc1` | 4.607 | -3.428 | -28.8 |
| `CC(=O)N(C)c1nc(CN2CCCC2Cn2nc(C)cc2C)cs1` (centres unmarked) | 11.57 | 3.311 | -0.6666 |
| `Cc1cc(=O)n2nc(CNc3cc(Cl)ccc3C)nc2[nH]1` | 24.38 | -1.089 | 3.043 |
| `CC(C)c1cc(=O)[nH]c(C(C)(C)N)n1.Cl` | -1.615 | - | -29.56 |
| `Cc1cc(-c2cnn(CCNC(=O)Cc3ccccn3)c2C2CC2)on1` | 13.61 and 5.096 | - | -4.906 |
| `O=C(CN1CC(c2nc(-c3ccco3)no2)C1)NCC1CCCO1` (centres unmarked) | - | 16.03 | - |
| `O=C(c1ccc(F)cc1)N1CCC2(CCN(Cc3ccccn3)C2=O)C1` (centres unmarked) | - | 3.004 | - |
| `[H][C@]12CCN(S(=O)(=O)c3ccc(C)cc3)[C@@]1([H])CC[C@@H](COC)O2` | 39.1 | - | -16.61 |
| `Cc1nc(C)c(CC(=O)N2C[C@@H]3CC[C@H](C2)N(CC2CCC2)C3)c(=O)[nH]1` | - | 0.6706 | - |
| `COCCN1CCN(Cc2c(C)noc2C)Cc2cccnc21` | - | -0.9856 | - |
| `CCOc1cc(CNC(=O)NC2CC=CC2)ccc1OC(F)F` | -1.19 | -7.588 | -2.094 |
| `Cc1nc(COc2ccc(CNCC3CN(C)CCO3)cc2)cs1` (centres unmarked) | 5.947 | -1.834 | -2.349 |
| `COCCN1C[C@@H]2[C@@H](OC)CCN(Cc3ccco3)[C@@H]2C1` | - | 1.051 | - |
| `CC(=O)N1CCC(NC(C)c2cnn(-c3ccc(F)cc3F)c2C)CC1` (centres unmarked) | 3.786 | -5.094 | -9.66 |
| `CSc1cccc(CN2CCC(CCC(=O)NC3CC3)CC2)c1` | 8.468 | -10.49 | -18.73 |
| `CCCC(=O)N1CCC(c2nn(C)c(=O)n2-c2ccccc2)CC1` | 16.13 | -5.317 | -4.262 |
| `Cc1c(C(=O)NS(=O)(=O)c2ccc(F)cc2)cnn1CC(C)C` | -23.8 | 3.549 | -23.23 |
| `CC(Cn1cccn1)NC(=O)N(C)Cc1ccc(C(N)=O)cc1` (centres unmarked) | -22.75 | 1.632 | -17.35 |
| `Cc1nc(N2CCN(C(=O)CC3CCCC3)CC2)c2cnn(C)c2n1` | 35.2 | -2.825 | -3.015 |
| `CNS(=O)(=O)Cc1cccc(CNc2ccc(Cl)cn2)c1` | 16.53 | 2.477 | 27.63 |
| `COCC(C)N(C)C(=O)NC1CCN(c2ncccn2)CC1` (centres unmarked) | 12.22 | 3.095 | -28.26 |
| `CN(C)c1cccc(C(=O)N2CCCc3cc(OC(F)(F)F)ccc32)c1` | 15.34 | 3.667 | - |
| `CCOC1CCN(CC(=O)Nc2oc(C)c3c(C)n[nH]c(=O)c23)CC1` | 12.68 | -0.9893 | 5.713 |
| `COC(=O)CCCNC(=O)N1CCc2c([nH]c3ccc(Cl)cc23)C1` | 10.22 | 1.331 | -19.6 |
| `O=C(O)C(F)(F)F.O=C(O)C(F)(F)F.c1cnc(N2CCOCC3(CCCN(Cc4cccs4)C3)C2)nc1` (centres unmarked) | 37.09 | - | -676.9 |
| `O=C(CS(=O)(=O)c1ncccc1Cl)NC1CCCc2ccccc21` (centres unmarked) | 5.47 | -0.5948 | -66.4 |
| `CCN1CCN(C[C@H]2CC[C@@H](Cc3ccc4c(c3)OCO4)O2)CC1` | 25.88 | 1.933 | 4.541 |
| `Cc1cc(C)n(C2CCCN(C(=O)c3ccnc(N(C)C)c3)C2)n1` (centres unmarked) | 37.9 | 0.2694 | -35.59 |
| `Cc1nc(C)n(CC2CCCCN2c2ccnc(-c3ccccc3)n2)n1` (centres unmarked) | -8.23 | -1.815 | -44.2 |
| `O=C(O)C(F)(F)F.O=C(O)C(F)(F)F.[H][C@@]12CN(CC3CC3)CCC[C@]1(C(=O)N(C)C)CN(c1ccccn1)C2` | 8.506 | - | 0.08001 |
| `CCC[C@@H]1CN(Cc2cnc(-c3cccs3)nc2)C[C@H]1C(=O)O` | -10.23 | 3.366 | -0.7795 |
| `Cc1nccn1C1CCCN(C(=O)c2ccc3nnc(C)n3c2)C1` (centres unmarked) | -18.95 | 12.55 | -13.22 |
| `Nc1nc(N)c2c(n1)OC1(CCN(C(=O)CC3CCNCC3)CC1)C2` | 15.35 | -3.385 | -6.668 |
| `COc1cc(-c2n[nH]c(CO)n2)cc(OC)c1OC` | -9.959 | 2.913 | -36.07 |

Some entries from above, unchanged:

COCCN1CCN(Cc2c(C)noc2C)Cc2cccnc21 gave B: -0.9856%.
O=C(c1ccc(F)cc1)N1CCC2(CCN(Cc3ccccn3)C2=O)C1 (centres unmarked) gave B: 3.004%.
CCC[C@@H]1CN(Cc2cnc(-c3cccs3)nc2)C[C@H]1C(=O)O gave A: -10.23%; B: 3.366%; C: -0.7795%.
Cc1nc(COc2ccc(CNCC3CN(C)CCO3)cc2)cs1 (centres unmarked) gave A: 5.947%; B: -1.834%; C: -2.349%.
Cc1nc(C)c(CC(=O)N2C[C@@H]3CC[C@H](C2)N(CC2CCC2)C3)c(=O)[nH]1 gave B: 0.6706%.